The values that follow come from PubChem BioAssay AID2685 (National Center for Advancing Translational Sciences (NCATS), 2010).

The experiment in a line: qHTS Assay for Lipid Storage Modulators in Drosophila S3 Cells.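 As to cell number change: cells counted by Cell Tracker Red CMTPX staining in the red channel.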 The settings on record: BODIPY lipid droplet fluorescence, 18-24 h; for cell number change: measured here: cell count max response, cells fed with added oleic acid. Put shortly: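 Laser-scanning cytometry quantifies lipid droplet accumulation (500–530 nm total intensity; droplet/cell object ratio) in oleic acid-fed (400 uM added) Drosophila S3 cells treated with a concentration series. 20 uM Triacsin C defined 100% inhibition.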

[1] abbreviates: measured here: cell number channel AC50, cells fed with added oleic acid.
The mark [2] stands for this setting: measured here: lipid fluorescence (Fed channel) AC50, cells fed with added oleic acid.

The list shows a part of the results. These are further read-outs of the screen, such as a control signal, another cell line or another target. No call is given for them. The list favours compounds with an active or inconclusive main result. The note in brackets gives the kind of curve behind each potency; many fits are weak.

In the case of `COc1cc2c(cc1NC(=O)c1cccnc1)oc1ccccc12`, the cell number change was 92.2%. For the same compound, the half-maximal activity concentration (AC50) under setting [1] is 3.26 µM [rising, full curve]. Besides, under setting [2], the AC50 was 1.64 µM [rising, partial curve].
In the case of `COc1ncccc1C(=O)N1CCCC(C(=O)c2cccc(OC(C)C)c2)C1` (stereo not given), the cell number change was -35.4%. Further, under setting [1], the AC50 was 29.1 µM [falling, single point]. The AC50 under setting [2] is 23.1 µM [falling, single point].
Turning to `Cc1c(NC(=O)c2nn(CC(C)C)c(=O)c3ccccc23)c(=O)n(-c2ccccc2)n1C`, the cell number change was -33.9%. The half-maximal activity concentration (AC50) under setting [1] was 20.6 µM [falling, single point]. Further, the AC50 under setting [2] was 0.291 µM [falling, full curve].
As for `CC(=O)c1ccc(NC(=O)[C@@H]2CCCN2C2=NS(=O)(=O)c3ccccc32)cc1`, the cell number change came to 16.7%. Moreover, under setting [2], the AC50 was 13 µM [rising, partial curve, poor fit].
Take `Cc1sc2ncnc(N3CCN(C(=O)c4ccco4)CC3)c2c1C`: the cell number change is -34.2%. The AC50 under setting [1] is 20.6 µM [falling, single point].
`c1ccc(OCc2nnc(-c3ccccc3)o2)cc1`: the cell number change was found to be 54.6%. Moreover, the concentration at half-maximal activity (AC50) under setting [1] is 4.61 µM [rising, full curve]. Under setting [2], the half-maximal activity concentration (AC50) is 4.11 µM [rising, full curve, poor fit].
In the case of `CON/C=N/C(=S)Nc1ncc(C(F)(F)F)cc1Cl`, the cell number change turned out to be 20.1%.
On to `C=CCc1cc(/C=N/n2cnnc2)cc(OCC)c1O`, for which the cell number change was -12.5%. Moreover, the half-maximal activity concentration (AC50) under setting [2] is 0.651 µM [falling, single point].
`CC(C)(C)C1=Nn2c(nnc2-c2ccco2)SC1`: the cell number change was -34.7%. In addition, under setting [1], the AC50 was 0.92 µM [falling, full curve].
For `CC(C)(C)c1ccc(C(=O)N2CCC(C(=O)NCc3ccco3)CC2)cc1`, the cell number change is -37.3%. The concentration at half-maximal activity (AC50) under setting [1] was 9.2 µM [falling, partial curve, poor fit]. Further, the half-maximal activity concentration (AC50) under setting [2] was 13 µM [falling, partial curve, poor fit].
As to `O=c1ccc2cc(S(=O)(=O)NCCCc3ccccc3)ccc2[nH]1`, the cell number change was 2.78%. Moreover, the concentration at half-maximal activity (AC50) under setting [2] was 29.1 µM [rising, single point].
`CNC(=O)CSc1nnc(-c2ccco2)n1-c1ccccc1OC`: the cell number change was -2.23%. Moreover, under setting [1], the AC50 is 0.00517 µM [falling, full curve].
As to `O=C(N/N=C/c1cc([N+](=O)[O-])ccc1O)c1ccc2c(c1)OCCO2`, the cell number change is 0.352%. Besides, the concentration at half-maximal activity (AC50) under setting [2] is 13 µM [falling, partial curve, poor fit].
With `COc1ccc2oc(=O)c(-c3cn4ccc(C)cc4n3)cc2c1`, the concentration at half-maximal activity (AC50) under setting [1] is 2.06 µM [rising, partial curve].
Turning to `S=c1[nH]nc(CSc2nc3ccccc3s2)n1Cc1ccccc1`, the cell number change worked out at 36.7%. Besides, the concentration at half-maximal activity (AC50) under setting [1] was 18.4 µM [rising, single point]. The AC50 under setting [2] was 18.4 µM [rising, partial curve].
As to `N#CC(C#N)=NNc1ccc(S(=O)(=O)N2CCCCC2)cc1`, under setting [1], the AC50 is 2.31 µM [rising, partial curve].
On to `C=CCS/C(=N\n1cnc2ccccc2c1=O)N1CCCCC1`, for which the cell number change was -7.16%. For the same compound, the AC50 under setting [2] was 6.51 µM [rising, full curve].
Regarding `COc1cc(OC)c(NC(=O)Cn2cccc2)cc1Cl`, the cell number change was -7.85%. For the same compound, under setting [2], the half-maximal activity concentration (AC50) is 0.651 µM [rising, full curve, poor fit].
For the compound `O=C(N/N=C/c1cccn1-c1ccc(O)cc1)c1cccc2ccccc12`, the cell number change stood at 99.1%. The half-maximal activity concentration (AC50) under setting [1] was 18.4 µM [rising, single point].
With `Cc1ccc(-n2c(SCC(=O)N3Cc4ccccc4CC3C(=O)O)nnc2-c2cccnc2)c(C)c1` (stereo not given), the cell number change was 20.4%. For the same compound, under setting [2], the concentration at half-maximal activity (AC50) is 23.1 µM [rising, single point].
For `COc1cc(NC(=O)CCNC(=O)Cn2ccc3ccccc3c2=O)cc(OC)c1OC`, the cell number change worked out at 3.85%. Moreover, the concentration at half-maximal activity (AC50) under setting [2] was 4.11 µM [rising, full curve].
Turning to `Cc1cccc(-n2ccc(=O)c(C(=O)O)n2)c1`, the cell number change amounted to 0.945%.
Turning to `CC1CCCCN1C(=O)COC(=O)CNC(=O)c1ccc(Cl)cc1Cl` (stereo not given), the cell number change is -45.8%. In addition, the AC50 under setting [1] is 2.31 µM [falling, full curve]. Under setting [2], the AC50 was 11.6 µM [falling, partial curve].
On to `CN1CCC(N(C)S(=O)(=O)c2ccc(NC(=O)c3cccc(C#N)c3)cc2)CC1`, for which the cell number change is -23.2%. Besides, under setting [2], the AC50 was 6.51 µM [rising, single point].
As for `O=C(CNC(=O)c1cccs1)N/N=C/c1ccc(Cl)cc1`, the cell number change came out at 1.28%. For the same compound, the half-maximal activity concentration (AC50) under setting [2] is 14.6 µM [rising, partial curve].
Consider `O=C1CS/C(=C\S(=O)(=O)c2ccc(Cl)cc2)N1`, for which the cell number change was -9.63%. Also, the concentration at half-maximal activity (AC50) under setting [2] was 0.366 µM [falling, full curve, poor fit].
As for `O=C(Nc1ccc(Oc2cccc3ccccc23)cc1)c1ccco1`, the cell number change was -39.3%. Also, the AC50 under setting [1] is 11.6 µM [falling, partial curve].
As to `Cc1cc(SCC#N)n2nc(C)c(-c3ccccc3)c2n1`, the cell number change is -35%. Under setting [2], the half-maximal activity concentration (AC50) was 1.3 µM [falling, full curve, poor fit].
With `Cc1ccc(C)c(OCCN2CCOCC2)c1`, the cell number change turned out to be 1.1%.
As for `CCn1cc(Br)c(C(=O)NC(=S)Nc2ccc(C(=O)OC)cc2)n1`, the cell number change came to 15.3%. Besides, the half-maximal activity concentration (AC50) under setting [2] is 32.6 µM [falling, single point].
With `NC(=NC(=O)c1ccccc1)C1=C(O)CCC1=O`, the cell number change is -22.3%. Further, the AC50 under setting [1] is 0.291 µM [falling, full curve, poor fit].
On to `O=C(Cc1csc(N2CCOCC2)n1)N/N=C/c1ccc(O)c(O)c1O`, for which, under setting [2], the AC50 was 0.651 µM [falling, single point].
For `CC(C)Cc1cc(C(=O)N2CCC(N3CCC(C(=O)NC4CC4)CC3)CC2)n[nH]1`, the cell number change was -28.3%. For the same compound, the half-maximal activity concentration (AC50) under setting [2] was 32.6 µM [falling, single point].
In the case of `CCCCNC(=O)N(O)C1N(/N=C/c2ccco2)C(=S)SC1(C)C` (stereo not given), the cell number change was 30.3%. Besides, the concentration at half-maximal activity (AC50) under setting [1] is 29.1 µM [rising, single point].
Turning to `COc1ccccc1N1CCN(C(c2ccc(F)cc2)c2nnnn2C(C)C)CC1` (stereo not given), the cell number change was -2.37%. Further, the half-maximal activity concentration (AC50) under setting [2] is 16.4 µM [rising, single point].
Turning to `COc1ccc(-c2cc(C(=O)Nc3ccc(C)c(C)c3)no2)cc1`, the cell number change is -12%. In addition, the AC50 under setting [2] is 29.1 µM [falling, single point].
In the case of `CC(C)c1nc(SCC(=O)Nc2cccc(C(=O)O)c2)c2c3c(sc2n1)CCCC3`, the cell number change came to 18%. Further, the half-maximal activity concentration (AC50) under setting [2] was 29.1 µM [rising, single point].
As for `O=c1c2cc(Br)ccc2[nH]c(=S)n1Cc1cccnc1`, the cell number change is -2.64%. Further, under setting [2], the AC50 is 0.651 µM [rising, full curve, poor fit].
In the case of `CCOc1ccc(-c2c(C)n([O-])c3c([n+]2=O)CCCCC3)cc1`, the cell number change was -34.9%. Besides, the AC50 under setting [1] is 1.84 µM [falling, partial curve]. The AC50 under setting [2] is 1.84 µM [falling, partial curve].
Take `COc1ccc(CNC(=O)C(NC(C)=O)C(=O)Nc2ccc(OC)cc2)cc1` (stereo not given): the cell number change amounted to 23.2%. Under setting [2], the AC50 is 7.31 µM [falling, single point].
For `Cc1ccccc1-c1nnc(SCC(=O)NCC2CCCO2)o1` (stereo not given), the cell number change is 4.08%. Also, the AC50 under setting [2] was 0.058 µM [rising, full curve, poor fit].
For the compound `CN(CCOC(=O)CN1C(=O)c2ccccc2C1=O)C1=NS(=O)(=O)c2ccccc21`, the cell number change was -25.2%. In addition, the AC50 under setting [2] is 32.6 µM [falling, partial curve, poor fit].
Regarding `O=C(Nc1ccccc1C(=O)NCc1ccccc1)c1ccco1`, the cell number change was 116%. Besides, the half-maximal activity concentration (AC50) under setting [1] was 25.9 µM [rising, single point]. Moreover, the half-maximal activity concentration (AC50) under setting [2] was 20.6 µM [rising, partial curve].
For the compound `COc1cc2nc(=S)n(CCCN3CCOCC3)c(N)c2cc1OC`, the cell number change is 21.1%.
With `COc1ccc(/C=C/C(=O)NCC(=O)N=Nc2c(O)[nH]c3ccc([N+](=O)[O-])cc23)cc1`, the cell number change is 20.3%. The AC50 under setting [2] is 29.1 µM [falling, single point].
As to `COc1ccc(CCN=C(N)NS(=O)(=O)c2cc(F)ccc2F)cc1`, the cell number change is -50%. Moreover, the AC50 under setting [1] was 29.1 µM [falling, single point].
With `COc1ccc(Cc2c(O)nc(SC)n(C(C)=O)c2=O)cc1`, the cell number change is -34.7%. For the same compound, under setting [1], the half-maximal activity concentration (AC50) is 4.11 µM [falling, full curve].
`O=C(NN=C1CCCCCC1)c1ccncc1`: the cell number change stood at 9.83%. For the same compound, under setting [2], the half-maximal activity concentration (AC50) is 0.13 µM [rising, full curve, poor fit].
With `CCCn1c(=O)[nH]c(=O)c2c1nc(-c1ccc(OC(F)F)c(OC)c1)n2CCOC`, the AC50 under setting [2] was 6.51 µM [rising, single point].
Regarding `Cc1cccc(NS(=O)(=O)c2cc(C(=O)NCc3ccccn3)ccc2C)c1`, the cell number change was 13.9%. Besides, under setting [2], the AC50 is 0.103 µM [rising, full curve, poor fit].
For `Cc1nnc(SC(=O)N2c3ccccc3Sc3ccccc32)s1`, the cell number change was found to be 88.3%. In addition, under setting [1], the half-maximal activity concentration (AC50) was 29.1 µM [rising, single point]. The AC50 under setting [2] was 20.6 µM [rising, single point].
Take `Cc1ccc(NC(=O)CCCc2nc3ccccc3s2)c(O)c1`: the cell number change was -15.2%. Further, the concentration at half-maximal activity (AC50) under setting [2] is 16.4 µM [falling, single point].
For `O=C(COC(=O)c1ccc2c(c1)OCCO2)Nc1cc(S(=O)(=O)N2CCOCC2)ccc1Cl`, the cell number change is 48.6%. In addition, the AC50 under setting [1] was 2.31 µM [rising, full curve]. Moreover, under setting [2], the AC50 was 4.61 µM [rising, full curve].
Take `COC(=O)c1c(NC(=O)c2cccc(S(=O)(=O)N3CCN(C)CC3)c2)sc(C)c1C`: the cell number change worked out at 6.37%. Besides, under setting [1], the AC50 was 2.06 µM [rising, partial curve]. The AC50 under setting [2] is 0.461 µM [rising, full curve].
`O=C(Nc1cccnc1)c1cc(-c2ccc(Cl)cc2Cl)on1`: the cell number change was -12.8%. Moreover, the AC50 under setting [1] is 2.06 µM [rising, single point]. Moreover, under setting [2], the half-maximal activity concentration (AC50) is 6.51 µM [falling, partial curve].
`CC1(c2ccc(Cl)cc2)NC(=O)N(CC(=O)Nc2ccc(F)cc2)C1=O` (stereo not given): the cell number change came to 23.9%. Besides, under setting [1], the half-maximal activity concentration (AC50) was 0.0103 µM [rising, full curve, poor fit]. Besides, the half-maximal activity concentration (AC50) under setting [2] is 14.6 µM [rising, partial curve].
As for `COc1cccc(C(=O)NC2CC(C)(C)Cc3c2cnn3-c2cccc(F)c2)c1OC` (stereo not given), the cell number change was -12.4%. The AC50 under setting [2] was 29.1 µM [falling, single point].

One may read the AC50 as the midpoint of the concentration-response curve, whichever way the signal moves.
